Assay results as given in the supplement of paper PMC4604168 (melanoma cell lines).
The other results are listed elsewhere or left out. Many values rest on one well or one pass, so single values are uncertain.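 Cells were imaged in 1,536-well plates, and nuclei stained with an antibody against cleaved PARP were counted against all DNA-stained nuclei to give the apoptosis fraction. Screening doses were chosen to leave most cells alive, and resting and induced cleaved-PARP levels differ strongly between cell lines.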

Key:
Assay in all cases: cleaved PARP positive nuclei fraction relative to DMSO control; melanoma cells; higher = more apoptosis
Conditions in all cases: library dose: low library concentration; 72 h
COLO792 = system: COLO792
COLO800 = system: COLO800
COLO829 = system: COLO829
G361 = system: G361
IPC-298 = system: IPC-298
IST-MEL1 = system: IST-MEL1
LOXIMVI = system: LOXIMVI
MEL-HO = system: MEL-HO
LB2518-MEL = system: LB2518-MEL

Compound	cleaved PARP positive nuclei fraction (COLO792) [%]	cleaved PARP positive nuclei fraction (COLO800) [%]	cleaved PARP positive nuclei fraction (COLO829) [%]	cleaved PARP positive nuclei fraction (G361) [%]	cleaved PARP positive nuclei fraction (IPC-298) [%]	cleaved PARP positive nuclei fraction (IST-MEL1) [%]	cleaved PARP positive nuclei fraction (LOXIMVI) [%]	cleaved PARP positive nuclei fraction (MEL-HO) [%]	cleaved PARP positive nuclei fraction (LB2518-MEL) [%]
Cn1sc(=O)n(Cc2ccccc2)c1=O + NCC(=O)Nc1ccc(-n2nc(C(F)(F)F)cc2-c2ccc3c(ccc4ccccc43)c2)cc1 [OSU03012] (first compound 0.4 µM, partner dose 1 µM)	93.9	33.9	82.5	105	357	176	90.7	101	–
CN(c1ncccc1CNc1nc(Nc2ccc3c(c2)CC(=O)N3)ncc1C(F)(F)F)S(C)(=O)=O + O=C(CCCCCCC(=O)Nc1ccccc1)NO [vorinostat] (first compound 0.08 µM, partner dose 0.08 µM)	96.1	128	137	107	23.7	46.6	288	69	39.6
CN(c1ncccc1CNc1nc(Nc2ccc3c(c2)CC(=O)N3)ncc1C(F)(F)F)S(C)(=O)=O + CO[C@@H]1[C@H](N(C)C(=O)c2ccccc2)C[C@H]2O[C@]1(C)n1c3ccccc3c3c4c(c5c6ccccc6n2c5c31)C(=O)NC4 [Midostaurin] (first compound 0.08 µM, partner dose 0.08 µM)	132	59.8	208	120	97.5	94	550	48.4	–
CS(=O)(=O)c1ccc(C(=O)Nc2ccc(Cl)c(-c3ccccn3)c2)c(Cl)c1 [vismodegib] + CN(NC(=O)CC(=O)NN(C)C(=S)c1ccccc1)C(=S)c1ccccc1 [STA4783] (first compound 1 µM, partner dose 0.006 µM)	212	220	304	140	180	187	222	132	–
COc1ccc(C2=N[C@@H](c3ccc(Cl)cc3)[C@@H](c3ccc(Cl)cc3)N2C(=O)N2CCNC(=O)C2)c(OC(C)C)c1 [Nutlin-3] + O=C(CCCCCCC(=O)Nc1ccccc1)NO [vorinostat] (first compound 0.1 µM, partner dose 0.08 µM)	74	115	96.2	47.2	63.7	35.1	50.1	226	129
CC1(C)CCC(c2ccc(Cl)cc2)=C(CN2CCN(c3ccc(C(=O)NS(=O)(=O)c4ccc(N[C@H](CCN5CCOCC5)CSc5ccccc5)c(S(=O)(=O)C(F)(F)F)c4)cc3)CC2)C1 + COc1ccc2c(c1)CCC1C2CCC2(C)C(NCCCCCCN3C(=O)C=CC3=O)CCC12 [U73122] (first compound 0.4 µM, partner dose 0.4 µM)	451	174	115	246	149	57.8	153	–	–
NC1(c2ccc(-c3nc4ccn5c(=O)[nH]nc5c4cc3-c3ccccc3)cc2)CCC1 + CO[C@@H]1[C@H](N(C)C(=O)c2ccccc2)C[C@H]2O[C@]1(C)n1c3ccccc3c3c4c(c5c6ccccc6n2c5c31)C(=O)NC4 [Midostaurin] (first compound 0.4 µM, partner dose 0.08 µM)	202	29.9	88.4	119	193	172	41	144	–
NC1(c2ccc(-c3nc4ccn5c(=O)[nH]nc5c4cc3-c3ccccc3)cc2)CCC1 + CC1(C)NC(=O)N(c2ccc([N+](=O)[O-])c(C(F)(F)F)c2)C1=O [nilutamide] (first compound 0.4 µM, partner dose 1 µM)	178	107	68	76	174	74.7	49.1	244	111
Cn1cnc2c(F)c(Nc3ccc(Br)cc3Cl)c(C(=O)NOCCO)cc21 [selumetinib] + COc1cc(N2CCC(N3CCN(C)CC3)CC2)ccc1Nc1ncc(Cl)c(Nc2ccccc2S(=O)(=O)C(C)C)n1 [NVP-TAE684] (first compound 0.015 µM, partner dose 0.08 µM)	52.1	65.9	171	33.9	130	109	139	–	–
C[C@]1(O)C[C@@H](c2nc(-c3ccc4ccc(-c5ccccc5)nc4c3)c3c(N)nccn32)C1 + COc1ccc(-c2ccc3c(N4CCOCC4)nc(N4C[C@@H](C)O[C@@H](C)C4)nc3n2)cc1CO [KU0063794] (first compound 0.4 µM, partner dose 0.02 µM)	118	174	94.1	100	67.6	78.4	247	–	–
C[C@]1(O)C[C@@H](c2nc(-c3ccc4ccc(-c5ccccc5)nc4c3)c3c(N)nccn32)C1 + COc1cc2c(Oc3ccc4[nH]c(C)cc4c3F)ncnc2cc1OCCCN1CCCC1 [cediranib] (first compound 0.4 µM, partner dose 0.4 µM)	125	252	78.4	50.3	91.2	88.9	127	76.8	90.9
CCN(CC)CCNC(=O)c1c(C)[nH]c(/C=C2\C(=O)Nc3ccc(F)cc32)c1C [sunitinib] + COc1cc(Nc2ncc(F)c(Nc3ccc4c(n3)NC(=O)C(C)(C)O4)n2)cc(OC)c1OC [Tamatinib] (first compound 0.4 µM, partner dose 0.4 µM)	351	159	113	85.7	61.3	50	316	82.5	67.5
CCN(CC)CCNC(=O)c1c(C)[nH]c(/C=C2\C(=O)Nc3ccc(F)cc32)c1C [sunitinib] + CC1(C)NC(=O)N(c2ccc([N+](=O)[O-])c(C(F)(F)F)c2)C1=O [nilutamide] (first compound 0.4 µM, partner dose 1 µM)	105	37.7	58.7	91.8	44.9	114	140	65.2	–
CCN(CC)CCNC(=O)c1c(C)[nH]c(/C=C2\C(=O)Nc3ccc(F)cc32)c1C [sunitinib] + Cn1cncc1[C@@](N)(c1ccc(Cl)cc1)c1ccc2c(c1)c(-c1cccc(Cl)c1)cc(=O)n2C [tipifarnib] (first compound 0.4 µM, partner dose 0.01 µM)	97.1	244	115	108	50.8	159	113	74.1	133
NC(=O)c1ccc(N(C(N)=O)c2c(F)cccc2F)nc1-c1ccc(F)cc1F + CC(C)CCN1c2nc(Nc3cc(F)c(O)c(F)c3)ncc2N(C)C(=O)C1C [BID1870] (first compound 0.4 µM, partner dose 0.2 µM)	51.8	36.5	156	94.1	48.1	137	492	–	–
CC(=O)O[C@@]12CO[C@@H]1C[C@H](O)[C@@]1(C)C(=O)[C@H](O)C3=C(C)[C@@H](OC(=O)[C@H](O)[C@@H](NC(=O)OC(C)(C)C)c4ccccc4)C[C@@](O)([C@@H](OC(=O)c4ccccc4)[C@H]21)C3(C)C [Docetaxel] + COc1cc2ncnc(Nc3ccc(Oc4ccccc4)cc3)c2cc1OC [SrcI1] (first compound 0.0001 µM, partner dose 2 µM)	510	665	353	630	409	241	97.5	–	–
CCCCCCCCc1ccc(CCC(N)(CO)CO)cc1 [fingolimod] + COc1cc(N2CCC(N3CCN(C)CC3)CC2)ccc1Nc1ncc(Cl)c(Nc2ccccc2S(=O)(=O)C(C)C)n1 [NVP-TAE684] (first compound 2 µM, partner dose 0.08 µM)	77.2	104	135	110	97	121	53.5	–	–
CCN(CC)CCNC(=O)c1c(C)[nH]c(/C=C2\C(=O)Nc3ccc(F)cc32)c1C [sunitinib] + COc1cc2c(Oc3ccc4[nH]c(C)cc4c3F)ncnc2cc1OCCCN1CCCC1 [cediranib] (first compound 0.4 µM, partner dose 0.4 µM)	88.8	70.7	116	132	359	130	147	58	281
CC1(C)CCC(c2ccc(Cl)cc2)=C(CN2CCN(c3ccc(C(=O)NS(=O)(=O)c4ccc(N[C@H](CCN5CCOCC5)CSc5ccccc5)c(S(=O)(=O)C(F)(F)F)c4)cc3)CC2)C1 + O=C(Nc1cccc(Cl)c1)Nc1ncc(CCNc2ncnc3ccsc23)s1 [SNS314] (first compound 0.4 µM, partner dose 0.0008 µM)	269	107	172	67.2	220	134	55	78.3	–

An excerpt of these results, as a markdown table.

| Compound | cleaved PARP positive nuclei fraction (COLO792) [%] | cleaved PARP positive nuclei fraction (COLO800) [%] | cleaved PARP positive nuclei fraction (COLO829) [%] | cleaved PARP positive nuclei fraction (G361) [%] | cleaved PARP positive nuclei fraction (IPC-298) [%] | cleaved PARP positive nuclei fraction (IST-MEL1) [%] | cleaved PARP positive nuclei fraction (LOXIMVI) [%] | cleaved PARP positive nuclei fraction (MEL-HO) [%] | cleaved PARP positive nuclei fraction (LB2518-MEL) [%] |
| --- | --- | --- | --- | --- | --- | --- | --- | --- | --- |
| C[C@]1(O)C[C@@H](c2nc(-c3ccc4ccc(-c5ccccc5)nc4c3)c3c(N)nccn32)C1 + COc1ccc(-c2ccc3c(N4CCOCC4)nc(N4C[C@@H](C)O[C@@H](C)C4)nc3n2)cc1CO [KU0063794] (first compound 0.4 µM, partner dose 0.02 µM) | 118 | 174 | 94.1 | 100 | 67.6 | 78.4 | 247 | – | – |
| C[C@]1(O)C[C@@H](c2nc(-c3ccc4ccc(-c5ccccc5)nc4c3)c3c(N)nccn32)C1 + COc1cc2c(Oc3ccc4[nH]c(C)cc4c3F)ncnc2cc1OCCCN1CCCC1 [cediranib] (first compound 0.4 µM, partner dose 0.4 µM) | 125 | 252 | 78.4 | 50.3 | 91.2 | 88.9 | 127 | 76.8 | 90.9 |
